In paper PMC6199344:
Results are given in words; binding and its absence hold for the method and conditions named. Binding seen in cells or lysates may run through a third protein. Some binding calls cover weakened binding; strength is not graded here.

Amino acid sequences for entries named in this document (tags omitted).
UniProt Q13148: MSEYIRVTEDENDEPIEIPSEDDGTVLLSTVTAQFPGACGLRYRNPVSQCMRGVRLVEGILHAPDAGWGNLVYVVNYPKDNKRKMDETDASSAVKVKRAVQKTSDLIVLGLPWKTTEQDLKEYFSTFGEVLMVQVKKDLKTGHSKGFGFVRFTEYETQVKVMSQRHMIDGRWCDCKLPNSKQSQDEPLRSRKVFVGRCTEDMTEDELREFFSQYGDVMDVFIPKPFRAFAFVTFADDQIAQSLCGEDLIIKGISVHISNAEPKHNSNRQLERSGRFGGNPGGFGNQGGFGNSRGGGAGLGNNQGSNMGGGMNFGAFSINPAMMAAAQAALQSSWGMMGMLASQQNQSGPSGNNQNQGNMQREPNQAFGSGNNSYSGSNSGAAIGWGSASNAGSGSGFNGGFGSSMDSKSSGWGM
UniProt O00472: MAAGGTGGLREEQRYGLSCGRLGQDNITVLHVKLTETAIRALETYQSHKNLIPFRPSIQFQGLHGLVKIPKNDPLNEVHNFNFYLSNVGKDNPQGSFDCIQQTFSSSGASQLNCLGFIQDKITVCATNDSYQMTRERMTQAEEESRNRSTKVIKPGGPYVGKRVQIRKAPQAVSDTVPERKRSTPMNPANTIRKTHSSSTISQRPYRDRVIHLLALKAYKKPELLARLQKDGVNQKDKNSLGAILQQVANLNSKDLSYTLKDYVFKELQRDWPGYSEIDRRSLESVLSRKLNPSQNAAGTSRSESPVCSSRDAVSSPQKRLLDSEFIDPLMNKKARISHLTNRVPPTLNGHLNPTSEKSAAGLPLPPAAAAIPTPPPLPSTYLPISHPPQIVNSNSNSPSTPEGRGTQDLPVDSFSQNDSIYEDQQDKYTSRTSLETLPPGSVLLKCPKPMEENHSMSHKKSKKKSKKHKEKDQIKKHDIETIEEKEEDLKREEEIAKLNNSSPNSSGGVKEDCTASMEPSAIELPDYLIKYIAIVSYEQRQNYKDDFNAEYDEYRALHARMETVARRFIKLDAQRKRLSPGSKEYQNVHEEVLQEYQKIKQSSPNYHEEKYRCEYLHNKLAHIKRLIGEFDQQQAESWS

Target: TAR DNA-binding protein 43 (human (endogenous in HEK293)) (UniProt Q13148)
Assay: co-IP; endogenous proteins, nuclear extract of HEK293 TetOn-GFP cells without doxycycline; anti-TDP-43 mAb 5028 or mouse IgG control on Dynabeads Protein G, 4 °C overnight, Pierce IP lysis buffer; immunoblot for ELL, ELL2, TDP-43

binding: binds
Substance: ELL2 (from UniProt O00472 1-640)
